Patent publication US20190262383
For some assays here: Weaker means in comparison with the reference protein, sequence or condition of that experiment. For some assays here: Where cells or extracts were used, other partners may take part.

The chains behind the UniProt entries cited, without tags or fusion partners. Residues count along the entry.
UniProt P32248, 25-378: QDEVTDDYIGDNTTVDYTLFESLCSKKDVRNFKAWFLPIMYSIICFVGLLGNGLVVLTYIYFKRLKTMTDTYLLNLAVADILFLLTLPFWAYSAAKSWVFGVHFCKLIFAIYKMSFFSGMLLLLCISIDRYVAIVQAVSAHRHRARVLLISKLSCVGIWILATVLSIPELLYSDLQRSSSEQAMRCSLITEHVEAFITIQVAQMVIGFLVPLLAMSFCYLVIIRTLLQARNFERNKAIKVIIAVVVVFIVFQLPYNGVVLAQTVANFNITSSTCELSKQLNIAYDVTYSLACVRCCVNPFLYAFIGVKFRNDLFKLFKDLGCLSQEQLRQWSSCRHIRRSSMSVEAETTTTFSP

What was measured:
[1] = target: T1, CCR7 (C-C chemokine receptor type 7) (Homo sapiens?) (UniProt P32248); assay: EMSA; conditions: gel shift with recombinant CCR7, purified recombinant protein
[2] = target: T1, CCR7 (C-C chemokine receptor type 7); assay: flow cytometry; conditions: HeLa-CCR7 ++; H9 ++; human memory CD4+ T cells + (10-25%); protein on the cell surface

“GGGAGGACGAUGCGGUCCAUCGUCUCUUAUCGUCUCUUGUCGCGCCAGACGACUCGCCCGA [C-6]”: binds more weakly [1]; binds [2].
